Measured values: publication PMC5353758
These are yes or no findings as the source states them, for the method shown. For some assays here: Binding seen in cells or lysates may run through a third protein. Some results given as binding are weak or reduced against the parent protein; the word gives no strength. Tags and fused reporters may be left off the sequences shown.

Protein sequences, listed by entry. Tags and fused reporters are not part of them.
UniProt O14974: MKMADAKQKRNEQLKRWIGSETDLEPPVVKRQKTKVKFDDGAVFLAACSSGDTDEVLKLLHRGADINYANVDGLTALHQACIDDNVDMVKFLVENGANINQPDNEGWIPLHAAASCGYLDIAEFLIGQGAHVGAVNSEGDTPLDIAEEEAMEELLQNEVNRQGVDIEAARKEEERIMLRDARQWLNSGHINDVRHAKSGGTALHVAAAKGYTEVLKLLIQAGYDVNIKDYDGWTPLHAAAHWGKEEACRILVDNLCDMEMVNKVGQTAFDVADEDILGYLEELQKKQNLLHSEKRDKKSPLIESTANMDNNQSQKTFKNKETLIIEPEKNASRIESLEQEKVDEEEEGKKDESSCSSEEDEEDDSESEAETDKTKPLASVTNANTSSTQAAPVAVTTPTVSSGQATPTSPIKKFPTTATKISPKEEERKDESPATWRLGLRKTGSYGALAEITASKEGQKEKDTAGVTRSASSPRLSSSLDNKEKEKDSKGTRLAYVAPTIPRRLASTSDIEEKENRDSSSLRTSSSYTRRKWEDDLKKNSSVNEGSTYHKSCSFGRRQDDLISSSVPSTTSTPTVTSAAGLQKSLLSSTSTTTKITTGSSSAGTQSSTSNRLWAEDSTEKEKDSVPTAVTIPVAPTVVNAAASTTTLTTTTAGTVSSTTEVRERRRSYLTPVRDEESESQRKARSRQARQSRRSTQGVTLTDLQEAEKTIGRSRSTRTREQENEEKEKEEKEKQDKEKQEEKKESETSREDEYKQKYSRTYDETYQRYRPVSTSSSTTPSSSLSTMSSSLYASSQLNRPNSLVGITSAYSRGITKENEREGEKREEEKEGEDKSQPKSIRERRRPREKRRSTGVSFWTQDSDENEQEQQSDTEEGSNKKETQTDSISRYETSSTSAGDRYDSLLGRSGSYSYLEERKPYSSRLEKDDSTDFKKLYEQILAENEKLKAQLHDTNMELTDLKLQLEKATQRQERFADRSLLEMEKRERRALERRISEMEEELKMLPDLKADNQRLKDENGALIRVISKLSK

Assays:
[1] = target: GST-MYPT1 (myosin phosphatase target subunit-1), full-length (UniProt O14974); experiment: SPR; Biacore 3000; full-length GST-MYPT1 captured on anti-GST coupled CM5 chip; c-myc-eNOS at 0.5 or 1 μM injected; 10 mM Hepes pH 7.4, 0.15 M NaCl, 3 mM EDTA, 0.005% Surfactant P20; GST surface subtracted; both purified
[2] = target: FLAG-MYPT1 (UniProt O14974); experiment: co-IP; lysates of tsA201 cells co-expressing FLAG-MYPT1 and c-myc-eNOS; anti-FLAG M2 or anti-c-myc EZview Red affinity gel; blots with anti-MYPT1 and anti-eNOS or anti-FLAG and anti-c-myc

B1: c-myc-eNOS (protein, UniProt P29473 1-1205)
chain: MGNLKSVGQEPGPPCGLGLGLGLGLCGKQGPASPAPEPSRAPAPATPHAPDHSPAPNSPTLTRPPEGPKFPRVKNWELGSITYDTLCAQSQQDGPCTPRCCLGSLVLPRKLQTRPSPGPPPAEQLLSQARDFINQYYSSIKRSGSQAHEERLQEVEAEVASTGTYHLRESELVFGAKQAWRNAPRCVGRIQWGKLQVFDARDCSSAQEMFTYICNHIKYATNRGNLRSAITVFPQRAPGRGDFRIWNSQLVRYAGYRQQDGSVRGDPANVEITELCIQHGWTPGNGRFDVLPLLLQAPDEAPELFVLPPELVLEVPLEHPTLEWFAALGLRWYALPAVSNMLLEIGGLEFSAAPFSGWYMSTEIGTRNLCDPHRYNILEDVAVCMDLDTRTTSSLWKDKAAVEINLAVLHSFQLAKVTIVDHHAATVSFMKHLDNEQKARGGCPADWAWIVPPISGSLTPVFHQEMVNYILSPAFRYQPDPWKGSATKGAGITRKKTFKEVANAVKISASLMGTLMAKRVKATILYASETGRAQSYAQQLGRLFRKAFDPRVLCMDEYDVVSLEHEALVLVVTSTFGNGDPPENGESFAAALMEMSGPYNSSPRPEQHKSYKIRFNSVSCSDPLVSSWRRKRKESSNTDSAGALGTLRFCVFGLGSRAYPHFCAFARAVDTRLEELGGERLLQLGQGDELCGQEEAFRGWAKAAFQASCETFCVGEEAKAAAQDIFSPKRSWKRQRYRLSTQAEGLQLLPGLIHVHRRKMFQATVLSVENLQSSKSTRATILVRLDTAGQEGLQYQPGDHIGICPPNRPGLVEALLSRVEDPPPPTESVAVEQLEKGSPGGPPPSWVRDPRLPPCTLRQALTFFLDITSPPSPRLLRLLSTLAEEPSEQQELETLSQDPRRYEEWKWFRCPTLLEVLEQFPSVALPAPLLLTQLPLLQPRYYSVSSAPNAHPGEVHLTVAVLAYRTQDGLGPLHYGVCSTWLSQLKTGDPVPCFIRGAPSFRLPPDPYVPCILVGPGTGIAPFRGFWQERLHDIESKGLQPAPMTLVFGCRCSQLDHLYRDEVQDAQERGVFGRVLTAFSREPDSPKTYVQDILRTELAAEVHRVLCLERGHMFVCGDVTMATSVLQTVQRILATEGDMELDEAGDVIGVLRDQQRYHEDIFGLTLRTQEVTSRIRTQSFSLQERHLRGAVPWAFDPPGPDTPGP
How did the binding [1] turn out when B1 was run?
Its binding is “binds”.

And the binding [2]?
Its binding is “binds”.
